Assay results from PubChem BioAssay AID1347076 (National Center for Advancing Translational Sciences (NCATS), 2019).
The whole screen tested about 400,000 compounds, of which about 13,000 (3.2%) were called active. This list was built around the results that the source calls inconclusive (neither active nor inactive); the mix of calls is not that of the screen. Calls come from the whole dose curve; as a rule, active = well fitted cell-killing curve with a large enough effect; inconclusive = small, poorly fitted or top-dose-only effect, or effect the other way; inactive = flat fitted curve, though single readings scatter. A potency beside an inconclusive call is a rough fit, not a confirmed value.

Test: qHTS assay for MDR1-selective chemotherapeutics: Primary screen using the drug-selected MDR subline cells KB-V1; note: nearly all actives have a fitted effect of over 60% in size
Settings: KB-V1 MDR cells viability, CellTiter-Glo, 72 h; activity change, negative = cytotoxicity: at 46.1 µM (top of the series)
Method in brief: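 KB-V1 cells (P-gp-expressing MDR subline of KB-3-1) in phenol-red-free DMEM with 10% FBS were exposed to library compounds over a concentration series for 72 h at 37 degrees C. Viability read by CellTiter-Glo luminescence; concentration-effect curves fitted after normalization.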
% is set by controls: 0 for no effect and ±100 for the full control effect; potency is the fitted concentration of half-maximal effect.

| SMILES | Potency | activity change, negative = cytotoxicity |
| --- | --- | --- |
| CS(=O)(=O)N1CCN(c2ccccc2NC(=O)c2ccc([N+](=O)[O-])o2)CC1 | inconclusive: 29.1 µM [cytotoxic, single point] |  |
| COCCN(C(=O)CCC(=O)Nc1ccccn1)C(C(=O)NCCC(C)C)c1ccc(C)cc1 (stereo unspecified) | inconclusive: 13 µM [cytotoxic, partial curve] |  |
| CCn1c(SCc2nc(-c3ccc(Cl)cc3)no2)nnc1-c1ccco1 | inconclusive: 18.4 µM [cytotoxic, single point] |  |
| Cc1ccc(CN2CC(C(=O)N3CCN(S(=O)(=O)c4cccc(F)c4)CC3)CC2=O)cc1 (stereo unspecified) | inconclusive: 18.4 µM [cytotoxic, single point] |  |
| CC(c1nnc(SCC(=O)Nc2cccnc2Cl)n1-c1ccccc1)N(C)C (stereo unspecified) | inconclusive: 3.26 µM [cytotoxic, partial curve, poor fit] |  |
| COc1cc2c(cc1N)-c1ccc(N)cc1C2=O | inactive |  |
| CCCC(=O)N1CCN(Cc2ccc3c(c2)OCO3)CC1 |  | inconclusive: -30.5% |
| Cc1ccc(C(c2nnnn2C2CCCC2)N2c3ccccc3CC2C)cc1 (stereo unspecified) | inconclusive: 23.1 µM [cytotoxic, single point] |  |
| Cc1cc(C)cc(OCC(=O)N2N=C(C(F)(F)F)CC2(O)C(C)(C)C)c1 (stereo unspecified) | inconclusive: 20.6 µM [cytotoxic, single point] |  |
| Cc1cccc(N2CCN(C(=O)C3CCN(S(=O)(=O)c4cccnc4)CC3)CC2)c1C | inactive |  |
| O=[N+]([O-])c1ccc(N2CCN(S(=O)(=O)c3ccccc3)CC2)c2cccnc12 | active: 8.2 µM |  |
| CCN(CC(=O)Nc1ccc(NC(C)=O)cc1)C(=O)COc1ccc(C(=O)c2ccccc2)cc1 | inconclusive: 25.9 µM [rising, single point] |  |
| COc1ccc(S(=O)(=O)N(C)c2ccc(C(=O)N3CCCCC3)cc2)cc1 | inconclusive: 18.4 µM [cytotoxic, single point] |  |
| CCn1c(=O)n(CC2CCC(C(=O)NC(C)C)CC2)c(=O)c2sccc21 (stereo unspecified) | inconclusive: 1.3 µM [rising, full curve, poor fit] |  |
| COc1cc(/C=C2/C(=O)ON=C2c2ccccc2)ccc1O | inconclusive: 29.1 µM [cytotoxic, single point] |  |
| CCOc1ccc(C(C)NC(=O)CN2C(=O)NC3(CCCCC3)C2=O)cc1OCC (stereo unspecified) | inconclusive: 29.1 µM [rising, single point] |  |
| COc1ccc(NC(=O)C(=O)N2N=C3CCCCC3C2(O)C(F)(F)F)cc1 (stereo unspecified) | inconclusive: 29.1 µM [rising, single point] |  |
| CCOC(=O)Nc1ccc2nc(-c3cscn3)[nH]c2c1 | active: 3.66 µM |  |
| COc1ccc2cc3c(N)nn(C(=O)c4ccc(F)cc4Cl)c3nc2c1 | inconclusive: 29.1 µM [cytotoxic, single point] |  |
| COc1ccc(CNC(=O)CCNC(=O)C2CCN(S(=O)(=O)c3ccc(OC)cc3)CC2)cc1 | inactive |  |
| COC(=O)c1cnn(-c2ccccc2)c1/C=N/NC(=S)Nc1ccccc1 | inactive |  |
| O=c1cc(-c2ccccc2)[nH]n1-c1nc2ccccc2s1 | inconclusive: 5.8 µM [cytotoxic, partial curve] |  |

| SMILES | Potency | activity change, negative = cytotoxicity |
| --- | --- | --- |
| COc1ccc(C(=O)NCC(c2ccc3c(c2)OCO3)N2CCN(C)CC2)cc1OC (stereo unspecified) | inactive |  |
| COCCN1Cc2cccc(C(=O)NCCc3ccccc3)c2C1=O | inconclusive: 5.8 µM [cytotoxic, partial curve] |  |
| O=C(CN1C(=O)NC2(CCc3ccccc3C2)C1=O)Nc1ccc(F)cc1 (stereo unspecified) | inconclusive: 18.4 µM [cytotoxic, partial curve] |  |
| Cc1cc(NC(=O)CN2CCC(O)CC2)nc2c1c(=O)oc1ccccc12 | inconclusive: 29.1 µM [cytotoxic, partial curve, poor fit] |  |
| O=C(/C=C/c1ccccc1)Nn1cnc2ccccc2c1=O | inactive |  |
| COc1ccccc1-n1cnc2cc(NC(=O)c3ccco3)ccc21 | inconclusive: 16.4 µM [cytotoxic, single point] |  |
| CSc1ncc2[nH]c(C(O)c3ccccc3)nc2n1 (stereo unspecified) | active: 8.2 µM |  |
| CCOC(=O)c1cc(CC)sc1NC(=O)COc1ccccc1C | inactive |  |
| Cc1ccccc1-c1cc(C(=O)Nc2sc(C(=O)OC(C)C)c(C)c2C#N)c2ccccc2n1 | active: 8.2 µM |  |
| C[C@]12CC[C@H](O)CC1=CCC1C2CC[C@@]2(C)C1CC[C@@H]2NCc1ccccc1 (stereo partly specified) | inconclusive: 20.6 µM [cytotoxic, single point] |  |
| Cn1c(N=Nc2ccc(N3CCOCC3)cc2)[n+](C)c2ccccc21 | inactive |  |
| CCOC(=O)c1c(C)[nH]c(C)c1S(=O)(=O)N1CCC(C(=O)Nc2ccc(OC)c(OC)c2)CC1 | inconclusive: 5.17 µM [rising, partial curve] |  |
| Cc1c([N+](=O)[O-])c(C(=O)NC2CCCC2)nn1C | inconclusive: 6.51 µM [cytotoxic, full curve] |  |
| COc1ccccc1NC(=O)CSc1ccc2nnc(-c3ccccn3)n2n1 | inconclusive: 18.4 µM [rising, single point] |  |
| CC1=NN(C(=O)c2ccc(Cn3ccc([N+](=O)[O-])n3)cc2)C(O)(C(F)(F)F)C1 (stereo unspecified) | inconclusive: 16.4 µM [cytotoxic, partial curve] |  |
| Cn1cc(Br)c(-c2cccc(NC(=O)CCCC(=O)O)c2)n1 | inconclusive: 16.4 µM [rising, partial curve, poor fit] |  |
| O=C1NC[C@@H](CCCCN2C[C@H](Cc3ccc(O)cc3)N(CC3CCCCC3)C(=O)C2=O)N(CC2CCCCC2)C1=O | inconclusive: 29.1 µM [rising, single point] |  |
| CN(C)c1ccc(S(=O)(=O)N2CCCCC2)cc1NC(=O)CCNC(=O)c1ccc(Cl)cc1 | active: 20.6 µM |  |
| O=C(Nc1ccc(F)cc1F)c1cc(-c2ccc3c(c2)OCO3)on1 | inconclusive: 16.4 µM [rising, partial curve] |  |
| COc1cc(C2CC(=O)N(CC(=O)Nc3ccccc3F)c3ccccc3S2)cc(OC)c1OC (stereo unspecified) | inconclusive: 9.2 µM [cytotoxic, partial curve] |  |
| COCCNC(=O)c1cccc(S(=O)(=O)N2CC3(C)CC2CC(C)(C)C3)c1 (stereo unspecified) | inconclusive: 6.51 µM [cytotoxic, partial curve, poor fit] |  |
| CN(C)S(=O)(=O)N1CCC(Oc2cccc(C(=O)NCCCC3CCCC3)c2)CC1 | inconclusive: 10.3 µM [cytotoxic, partial curve, poor fit] |  |

| SMILES | Potency | activity change, negative = cytotoxicity |
| --- | --- | --- |
| O=C(NCC(c1cccs1)N1CCOCC1)c1ccc(Cl)s1 (stereo unspecified) | active: 16.4 µM |  |
| Cc1cccc(OCC(=O)Nc2cccc(-c3nc4ccccc4s3)c2)c1 |  | inconclusive: -4.44% |
| CC(C)(C)c1cc(NCCCn2ccnc2)n2ncc(-c3ccc(Cl)cc3)c2n1 | inconclusive: 16.4 µM [cytotoxic, single point] |  |
| C(=N\n1cnnc1)/c1cccc2ccccc12 | active: 10.3 µM |  |
| CCN(CC)CCNC(=O)c1ccc(Cl)c(S(=O)(=O)Nc2ccc(Cl)cc2)c1 | inconclusive: 29.1 µM [rising, partial curve, poor fit] |  |
| O=C(Nc1nc2ccccc2n1Cc1ccccc1)c1ccc(COc2ccccc2[N+](=O)[O-])o1 | inconclusive: 6.51 µM [cytotoxic, partial curve, poor fit] |  |
| CCOc1ccc(NC(=S)N2CCCC2)cc1 | inconclusive: 29.1 µM [rising, single point] |  |
| COC(=O)c1ccccc1NC(=O)CCc1c(C)nc2cc(-c3ccc(Cl)cc3)nn2c1C | inactive |  |
| COc1ccc(CNC(=O)CCCn2nc(C)c([N+](=O)[O-])c2C)cc1 | active: 25.9 µM |  |
| COc1ccc(C(=O)N=C2CCC(C#N)=C3c4cc(OC)c(OC)cc4CCN23)cc1 | active: 11.6 µM |  |
| Cc1ccc(Cl)cc1N1CCN(C(=O)c2cn(C)c3ccc(S(=O)(=O)N4CCCCC4)cc3c2=O)CC1 | inactive |  |
| C[C@H](CO)N1C[C@H](C)[C@@H](CN(C)Cc2ccc(Cl)c(Cl)c2)Oc2c(NC(=O)C3CCOCC3)cccc2C1=O | inactive |  |
| COc1ccccc1C1C(C(C)=O)=C(C)N=c2s/c(=C\c3cc(OC)c(OC)c(OC)c3)c(=O)n21 (stereo unspecified) | inconclusive: 18.4 µM [cytotoxic, single point] |  |
| O=C(c1cccc(S(=O)(=O)N2CCCC2)c1)N1CCCc2ccccc21 | inconclusive: 32.6 µM [cytotoxic, single point] |  |
| Cc1cccc(N=c2oc3cc(O)ccc3cc2C(N)=O)c1 | inconclusive: 20.6 µM [cytotoxic, single point] |  |
| O=C(Nc1ccc(F)c(F)c1)c1ccc(F)c(S(=O)(=O)N2CCC3(CC2)OCCO3)c1 | inconclusive: 16.4 µM [cytotoxic, single point] |  |
| COC(=O)CN1C(c2ccc(Cl)cc2)=Nc2ccc(Cl)cc2C1c1ccccc1 (stereo unspecified) | inconclusive: 20.6 µM [cytotoxic, single point] |  |
| COCCc1nnc(NC(=O)Cc2ccccc2)s1 | inconclusive: 11.6 µM [rising, partial curve, poor fit] |  |
| CCC(=O)N1CCC(C)(C(=O)Nc2ccc3c(c2)OCCO3)C1 (stereo unspecified) | inactive |  |
| CC(C)CN(CC(C)C)c1nc(N)c(C#N)c(CC#N)c1C#N | inconclusive: 32.6 µM [cytotoxic, partial curve, poor fit] |  |
| CCOc1ccccc1NC(=O)c1ccc(C(=O)Nc2ccccc2OCC)cc1 | inconclusive: 29.1 µM [rising, single point] |  |
| CC(=O)NC(c1ccccc1)c1nc(-c2cccc(C#N)c2)cs1 (stereo unspecified) | inactive |  |

4 compounds out of the list, arranged by heavy-atom count, ascending:

| SMILES | Potency | activity change, negative = cytotoxicity |
| --- | --- | --- |
| CCOc1ccc(NC(=S)N2CCCC2)cc1 | inconclusive: 29.1 µM [rising, single point] |  |
| O=C(NCC(c1cccs1)N1CCOCC1)c1ccc(Cl)s1 (stereo unspecified) | active: 16.4 µM |  |
| CC(=O)NC(c1ccccc1)c1nc(-c2cccc(C#N)c2)cs1 (stereo unspecified) | inactive |  |
| CC(C)(C)c1cc(NCCCn2ccnc2)n2ncc(-c3ccc(Cl)cc3)c2n1 | inconclusive: 16.4 µM [cytotoxic, single point] |  |
